Results as given in paper PMC10895342.
These are yes or no findings as the source states them, for the method shown. Binding seen in cells or lysates may run through a third protein. Some binding calls cover weakened binding; strength is not graded here.

The chains behind the UniProt entries cited, without tags or fusion partners. Residues count along the entry.
UniProt P42685: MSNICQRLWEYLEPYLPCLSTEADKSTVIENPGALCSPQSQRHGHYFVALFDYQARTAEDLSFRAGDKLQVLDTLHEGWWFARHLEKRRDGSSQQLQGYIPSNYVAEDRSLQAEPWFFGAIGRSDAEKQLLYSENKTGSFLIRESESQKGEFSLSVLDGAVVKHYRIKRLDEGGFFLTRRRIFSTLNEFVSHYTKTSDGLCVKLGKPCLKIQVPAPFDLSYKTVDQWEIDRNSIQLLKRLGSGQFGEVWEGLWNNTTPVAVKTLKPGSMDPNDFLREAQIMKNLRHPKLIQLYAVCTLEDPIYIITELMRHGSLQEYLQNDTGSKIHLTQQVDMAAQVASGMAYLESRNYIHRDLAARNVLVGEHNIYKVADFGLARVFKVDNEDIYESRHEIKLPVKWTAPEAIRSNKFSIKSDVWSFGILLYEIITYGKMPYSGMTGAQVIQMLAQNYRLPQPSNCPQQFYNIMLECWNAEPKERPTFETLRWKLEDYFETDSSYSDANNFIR
UniProt Q922K9: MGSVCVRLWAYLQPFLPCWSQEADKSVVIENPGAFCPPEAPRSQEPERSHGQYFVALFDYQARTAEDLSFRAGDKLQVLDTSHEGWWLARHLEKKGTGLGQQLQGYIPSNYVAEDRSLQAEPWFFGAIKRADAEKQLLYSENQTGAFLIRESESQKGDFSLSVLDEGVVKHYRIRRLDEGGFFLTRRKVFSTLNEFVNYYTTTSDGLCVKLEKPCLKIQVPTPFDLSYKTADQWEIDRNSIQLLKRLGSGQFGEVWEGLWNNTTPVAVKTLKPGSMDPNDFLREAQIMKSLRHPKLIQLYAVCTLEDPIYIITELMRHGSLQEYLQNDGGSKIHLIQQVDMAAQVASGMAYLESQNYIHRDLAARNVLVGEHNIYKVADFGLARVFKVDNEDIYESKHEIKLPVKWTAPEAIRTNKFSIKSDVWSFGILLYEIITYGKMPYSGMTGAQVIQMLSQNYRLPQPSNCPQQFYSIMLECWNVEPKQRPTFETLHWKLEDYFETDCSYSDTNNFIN
UniProt P01024, residues 23-1663: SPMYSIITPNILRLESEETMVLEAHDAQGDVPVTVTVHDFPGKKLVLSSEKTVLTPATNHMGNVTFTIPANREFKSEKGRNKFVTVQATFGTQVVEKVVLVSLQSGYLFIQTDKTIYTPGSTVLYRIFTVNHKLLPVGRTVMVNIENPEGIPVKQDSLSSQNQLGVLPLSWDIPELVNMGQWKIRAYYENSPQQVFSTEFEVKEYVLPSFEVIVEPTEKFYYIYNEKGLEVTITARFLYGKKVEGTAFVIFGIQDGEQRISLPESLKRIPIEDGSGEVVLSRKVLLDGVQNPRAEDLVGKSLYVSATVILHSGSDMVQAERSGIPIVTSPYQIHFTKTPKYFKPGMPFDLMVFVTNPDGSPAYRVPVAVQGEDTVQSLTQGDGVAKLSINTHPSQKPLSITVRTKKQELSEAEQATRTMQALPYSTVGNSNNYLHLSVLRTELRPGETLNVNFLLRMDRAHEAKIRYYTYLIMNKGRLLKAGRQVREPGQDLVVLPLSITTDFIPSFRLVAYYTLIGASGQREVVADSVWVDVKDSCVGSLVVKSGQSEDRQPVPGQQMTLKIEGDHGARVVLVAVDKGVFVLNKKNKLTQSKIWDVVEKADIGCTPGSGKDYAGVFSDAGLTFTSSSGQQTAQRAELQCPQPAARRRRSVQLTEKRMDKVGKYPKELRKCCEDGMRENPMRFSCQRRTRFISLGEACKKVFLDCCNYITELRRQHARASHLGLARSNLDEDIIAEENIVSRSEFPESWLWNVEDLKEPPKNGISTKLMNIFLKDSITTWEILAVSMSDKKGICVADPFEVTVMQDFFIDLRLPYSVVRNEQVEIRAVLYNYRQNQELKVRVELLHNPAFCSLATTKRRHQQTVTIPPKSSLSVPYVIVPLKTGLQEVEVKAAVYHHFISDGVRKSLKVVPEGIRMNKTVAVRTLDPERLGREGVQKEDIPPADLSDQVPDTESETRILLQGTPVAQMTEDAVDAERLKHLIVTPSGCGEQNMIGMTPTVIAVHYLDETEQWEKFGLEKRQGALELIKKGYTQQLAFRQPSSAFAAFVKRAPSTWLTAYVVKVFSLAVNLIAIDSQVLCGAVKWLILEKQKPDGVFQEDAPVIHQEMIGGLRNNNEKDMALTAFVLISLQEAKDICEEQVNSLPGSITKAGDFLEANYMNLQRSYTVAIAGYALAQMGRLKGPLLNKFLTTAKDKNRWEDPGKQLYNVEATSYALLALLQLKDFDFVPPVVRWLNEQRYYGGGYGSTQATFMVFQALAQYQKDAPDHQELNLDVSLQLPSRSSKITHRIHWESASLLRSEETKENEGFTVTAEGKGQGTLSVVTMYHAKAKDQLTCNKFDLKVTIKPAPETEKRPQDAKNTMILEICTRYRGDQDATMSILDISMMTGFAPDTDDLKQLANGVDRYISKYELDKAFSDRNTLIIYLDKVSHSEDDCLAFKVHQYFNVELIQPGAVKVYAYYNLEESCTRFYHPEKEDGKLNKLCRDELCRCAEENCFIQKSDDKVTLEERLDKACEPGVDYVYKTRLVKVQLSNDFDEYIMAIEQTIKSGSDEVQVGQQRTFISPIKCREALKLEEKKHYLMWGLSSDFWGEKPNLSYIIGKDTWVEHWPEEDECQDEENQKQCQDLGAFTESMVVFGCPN
UniProt P01027, residues 25-1663: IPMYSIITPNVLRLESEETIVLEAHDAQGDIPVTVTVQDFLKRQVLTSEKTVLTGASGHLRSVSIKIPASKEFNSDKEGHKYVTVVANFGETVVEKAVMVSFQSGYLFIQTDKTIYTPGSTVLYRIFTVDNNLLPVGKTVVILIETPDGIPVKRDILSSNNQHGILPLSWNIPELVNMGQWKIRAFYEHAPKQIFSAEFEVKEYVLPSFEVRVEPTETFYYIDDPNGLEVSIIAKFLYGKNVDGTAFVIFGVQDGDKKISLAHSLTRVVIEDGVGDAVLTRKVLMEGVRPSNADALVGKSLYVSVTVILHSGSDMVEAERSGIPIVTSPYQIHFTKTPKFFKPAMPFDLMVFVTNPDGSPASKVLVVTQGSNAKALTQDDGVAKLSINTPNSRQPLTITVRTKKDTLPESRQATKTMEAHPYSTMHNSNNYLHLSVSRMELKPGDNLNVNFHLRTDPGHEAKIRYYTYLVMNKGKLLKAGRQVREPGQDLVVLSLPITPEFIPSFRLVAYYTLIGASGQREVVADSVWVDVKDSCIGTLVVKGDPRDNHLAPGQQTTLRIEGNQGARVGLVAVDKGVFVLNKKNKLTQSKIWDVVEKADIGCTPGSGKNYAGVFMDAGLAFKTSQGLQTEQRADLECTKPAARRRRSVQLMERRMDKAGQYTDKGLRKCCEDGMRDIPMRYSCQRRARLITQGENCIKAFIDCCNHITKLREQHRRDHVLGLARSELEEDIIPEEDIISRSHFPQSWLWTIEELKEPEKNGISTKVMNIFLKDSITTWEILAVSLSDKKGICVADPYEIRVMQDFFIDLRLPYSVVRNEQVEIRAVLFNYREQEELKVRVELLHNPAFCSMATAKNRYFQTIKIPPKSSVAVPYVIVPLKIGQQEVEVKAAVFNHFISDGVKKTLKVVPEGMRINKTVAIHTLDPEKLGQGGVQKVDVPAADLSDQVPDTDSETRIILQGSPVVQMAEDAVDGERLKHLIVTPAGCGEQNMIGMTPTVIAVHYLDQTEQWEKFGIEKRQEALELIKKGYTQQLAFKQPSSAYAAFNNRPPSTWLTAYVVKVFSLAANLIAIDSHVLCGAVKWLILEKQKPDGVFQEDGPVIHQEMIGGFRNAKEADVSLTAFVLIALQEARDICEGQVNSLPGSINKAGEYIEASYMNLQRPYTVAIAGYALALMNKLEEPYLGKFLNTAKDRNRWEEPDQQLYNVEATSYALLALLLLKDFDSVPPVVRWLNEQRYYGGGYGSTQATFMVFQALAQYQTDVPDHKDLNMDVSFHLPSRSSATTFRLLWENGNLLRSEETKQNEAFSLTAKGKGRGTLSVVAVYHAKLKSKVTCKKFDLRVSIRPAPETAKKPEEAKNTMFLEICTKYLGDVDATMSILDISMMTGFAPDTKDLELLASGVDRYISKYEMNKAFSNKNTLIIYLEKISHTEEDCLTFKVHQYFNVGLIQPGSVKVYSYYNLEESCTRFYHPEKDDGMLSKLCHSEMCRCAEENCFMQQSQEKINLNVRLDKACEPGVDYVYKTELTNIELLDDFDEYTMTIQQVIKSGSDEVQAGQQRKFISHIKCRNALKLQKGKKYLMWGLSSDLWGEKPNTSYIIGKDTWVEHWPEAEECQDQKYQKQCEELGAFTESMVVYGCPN

Key:
[1] = molecular target: human FRK expressed in INS-1 cells (human) (UniProt P42685); assay: proximity ligation; Duolink PLA in INS-1 cells expressing human C3 (stable or cotransfected WT or ΔATG1 plasmid) and transfected with human FRK plasmid; mouse anti-human C3/C3a and goat anti-FRK primary antibodies
[2] = molecular target: mouse FRK, endogenous in pancreatic islets (mouse (endogenous in mouse islets)) (UniProt Q922K9); assay: proximity ligation; Naveniflex tissue PLA on freshly isolated, fixed and permeabilised primary mouse islets; rabbit anti-mouse FRK and goat anti-mouse C3 primary antibodies; C3 KO islets as negative control

binding [1]	binding [2]	Substance
binds		human C3, WT (canonical), expressed in INS-1 cells (from UniProt P01024 23-1663)
	binds	mouse C3, endogenous in pancreatic islets (from UniProt P01027 25-1663)
